Data: the supplement of paper PMC7125110
± gives the standard error. The uncertainty is large for many entries.

B1: glmS ribozyme (parent)
chain: AUAAAAGCGCCAGAACUACAGAAAUGUAGUUGACGAGGAGGAGGUUUAUCGAAUUUUCGGCGGAUGCCUCCAAA

Variants of: B1
Assay: KM; higher = weaker cofactor use; RNA array
Settings: with glucosamine-6-phosphate
Method in brief: (§1)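 The measurements used barcoded ribozyme variants on sequenced MiSeq chips, transcribed in situ by E. coli RNA polymerase and tracked at 37 °C with a hybridised Cy3 probe. Glucosamine-6-phosphate, 40 μM to 10 mM in HEPES/KCl/Mg(OAc)2 buffer, was flowed in while tiles were imaged over ~14 h. Baseline-normalised signals, also normalised to non-cleaving reference variants, gave per-tile medians that were fit to one- or two-exponential decays for kobs. kcat and KM resulted from weighted Michaelis–Menten fits across concentrations.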

Row | Variant | KM [µM]
1 | C16A G32C | 1220 ± 140
2 | C16A U31C | 4470 ± 2800
3 | C16A U46C | 1730 ± 1300
4 | C16A U54G | 1470 ± 870
5 | C16G A48U | 171000 ± 90000
6 | C16G A52G | 3820 ± 2200
7 | C16G A64C | 9060 ± 1500
8 | C16G C34U | 17.4 ± 14
9 | C16G C67A | 1820 ± 1200
10 | C16G C71U | 956 ± 300
11 | C16G G37A | 10600 ± 8200
12 | C16G G41A | 1460 ± 1000
13 | C16G U46G | 1740 ± 950
14 | C16G U47A | 1710 ± 700
15 | C16G U55C | 1270 ± 890
16 | C16G U57G | 1400 ± 850
17 | C16U A42G | 1200 ± 680
18 | C16U A42U A64G | 4100 ± 2100
19 | C16U A52G | 5340 ± 3500
20 | C16U C70G | 369 ± 200
21 | C16U C71G | 141 ± 82
22 | C16U G40U | 830 ± 600
23 | C16U G43A | 4310 ± 3600
24 | C16U G44A | 2000 ± 1200
25 | C16U G66A | 1520 ± 640

Row | Variant | KM [µM]
26 | C16U G66C | 657 ± 250
27 | C16U U30C | 269 ± 240
28 | C16U U55A | 1180 ± 810
29 | C16U U57C | 4890 ± 3200
30 | C19U | 179 ± 140
31 | G26U G40U | 272 ± 64
32 | G29A U45A | 3200 ± 1300
33 | G29A U49G | 305 ± 290
34 | G29A U54A | 3150 ± 1100
35 | G29C A36C G43U | 37.1 ± 34
36 | G29C C58U | 2150 ± 1100
37 | G29C C70U | 142 ± 120
38 | G29C G37A | 6200 ± 1700
39 | G29C U46G | 1710 ± 930
40 | G29C U47G | 1800 ± 1100
41 | G29C U55C | 3510 ± 1600
42 | G29C U57A | 2230 ± 1700
43 | G29U A39C | 2170 ± 670
44 | G29U A48C C50U | 58.8 ± 56
45 | G29U A52G | 3340 ± 1200
46 | G29U A53U | 1600 ± 360
47 | G29U C58A | 3860 ± 2300
48 | G29U C70G | 354 ± 150
49 | G29U G37C | 145 ± 140
50 | G29U G40C | 1010 ± 620

Row | Variant | KM [µM]
51 | G29U G66A | 1710 ± 700
52 | G29U U54A U65A | 821 ± 460
53 | U30A A42U | 588 ± 46
54 | U30A A53C | 3590 ± 950
55 | U30A A53G | 1280 ± 780
56 | U30A A53U | 1860 ± 480
57 | U30A C67G | 1650 ± 330
58 | U30A C67U | 1980 ± 1100
59 | U30A C70U | 321 ± 270
60 | U30A G37A | 2360 ± 1300
61 | U30A U46A | 1190 ± 650
62 | U30A U46C | 1730 ± 750
63 | U30A U46G | 1470 ± 960
64 | U30A U55G | 2190 ± 1200
65 | U30C | 1950 ± 180
66 | U30C C58U | 7680 ± 6900
67 | U30C C61G | 178 ± 110
68 | U30C C67U | 927 ± 390
69 | U30C C71U | 1530 ± 340
70 | U30C G32A | 3840 ± 740
71 | U30G A39U | 3710 ± 2200
72 | U30G A48G | 324 ± 190
73 | U30G C67A C70U | 353 ± 78
74 | U30G C68G | 120 ± 57
75 | U30G G60A | 3450 ± 1800

Row | Variant | KM [µM]
76 | U30G U54A | 3060 ± 1700
77 | U30G U54C | 2170 ± 270
78 | U30G U54G | 1420 ± 820
79 | U30G U56G | 1190 ± 630
80 | U30G U65C | 722 ± 460
81 | U31A A39C | 2120 ± 1000
82 | U31A A42G U47A | 1050 ± 690
83 | U31A A52G | 4620 ± 1600
84 | U31A A53C | 5300 ± 2300
85 | U31A C58A | 32800 ± 9800
86 | U31A C58G | 35400 ± 16000
87 | U31A C71A | 1630 ± 1000
88 | U31A G32U | 8770 ± 5500
89 | U31A U47G | 1670 ± 920
90 | U31A U56G | 2950 ± 1500
91 | U31A U57A | 2390 ± 95
92 | U31A U69A | 120 ± 120
93 | U31C | 2370 ± 430
94 | U31C A52G C67U | 4660 ± 4200
95 | U31C C58G | 2510 ± 2400
96 | U31C C61A | 4050 ± 2500
97 | U31C C67U | 1290 ± 260
98 | U31C C70G | 428 ± 250
99 | U31C C71U | 2690 ± 1700
100 | U31C G32A | 6580 ± 2400

Row | Variant | KM [µM]
101 | U31C G41A | 334 ± 190
102 | U31C G41U | 1350 ± 260
103 | U31C U45A | 3890 ± 1200
104 | U31C U49G | 1610 ± 200
105 | U31C U55A | 3270 ± 1100
106 | U31C U55G | 2750 ± 1200
107 | U31C U57A | 90.6 ± 87
108 | U31C U65C | 238 ± 120
109 | U31G A33U C70U | 2540 ± 1500
110 | U31G A36U | 166 ± 86
111 | U31G A53U | 5030 ± 2900
112 | U31G G32C | 5520 ± 1100
113 | U31G G51C | 210 ± 61
114 | U31G U54C | 3090 ± 1700
115 | U31G U69A | 102 ± 80
116 | G32A A42G A64G | 1990 ± 1300
117 | G32A A64U | 939 ± 530
118 | G32A G60U | 369 ± 220
119 | G32A G66C | 1250 ± 160
120 | G32A U45A | 2580 ± 370
121 | G32A U45G | 2680 ± 1900
122 | G32A U47G | 3780 ± 1600
123 | G32A U49G | 741 ± 85
124 | G32C A53C | 18600 ± 1900
125 | G32C G41U | 6200 ± 4700

Row | Variant | KM [µM]
126 | G32C G43U | 763 ± 760
127 | G32U A52G | 3490 ± 570
128 | G32U C58A | 5030 ± 1000
129 | G32U C58U | 5150 ± 2700
130 | G32U G51U U55A | 2690 ± 2100
131 | G32U U45A | 3440 ± 1700
132 | G32U U45G | 24200 ± 12000
133 | G32U U65G | 127000 ± 65000
134 | A33C A53U | 1010 ± 530
135 | A33C G41U | 4820 ± 2500
136 | A33C G66A | 2470 ± 580
137 | A33C U54A | 7810 ± 1700
138 | A33C U54G | 2740 ± 1400
139 | A33C U57A | 480 ± 390
140 | A33C U65A | 617 ± 240
141 | A33G A64G C70A | 412 ± 260
142 | A33U A39C | 3650 ± 1600
143 | A33U A53G C70U | 20900 ± 2500
144 | A33U A53U G66A | 10200 ± 430
145 | A33U C61G | 319 ± 210
146 | A33U C71U | 2840 ± 690

Variants of: B1
Assay: self-cleavage kobs at 160 uM GlcN6P; higher = faster cleavage; RNA array
Settings: with glucosamine-6-phosphate
Method in brief: as §1

Row | Variant | self-cleavage kobs at 160 uM GlcN6P [s⁻¹]
147 | C16G A52G | 3.14e-05 ± 1.9e-05
148 | C16U G44A | 2.57e-05 ± 1.7e-05
149 | G29C U46G | 3.58e-05 ± 1.9e-05
150 | G29C U47G | 3.21e-05 ± 2e-05
151 | G29U A52G | 2.24e-05 ± 2.2e-05
152 | G29U C70G | 1.19e-05 ± 1.1e-05
153 | G29U G40C | 3.91e-05 ± 2.2e-05
154 | U30A C67G | 1.51e-05 ± 1.3e-05
155 | U30A U46A | 3.68e-05 ± 3.3e-05
156 | U30G C68G | 1.67e-05 ± 1.5e-05
157 | U31C C70G | 1.32e-05 ± 9.1e-06
158 | U31C G41U | 2.38e-05 ± 1.4e-05
159 | U31G A53U | 0.000249 ± 0.00016
160 | G32A U45G | 2.33e-05 ± 1.5e-05

Variants of: B1
Assay: self-cleavage kobs at 10000 uM GlcN6P; higher = faster cleavage; RNA array
Settings: with glucosamine-6-phosphate
Method in brief: as §1

Row | Variant | self-cleavage kobs at 10000 uM GlcN6P [s⁻¹]
161 | C16G U57G | 1.94e-05 ± 1.3e-05
162 | U30C C58U | 1.84e-05 ± 1.5e-05
163 | G32C A53C | 1.27e-05 ± 1.1e-05
164 | A33U A39C | 1.28e-05 ± 9.2e-06
165 | A33U A53U G66A | 3.76e-05 ± 2.2e-05

Variants of: B1
Assay: self-cleavage kobs at 640 uM GlcN6P; higher = faster cleavage; RNA array
Settings: with glucosamine-6-phosphate
Method in brief: as §1

Row | Variant | self-cleavage kobs at 640 uM GlcN6P [s⁻¹]
166 | C16U G43A | 3.1e-05 ± 1.8e-05
167 | G29C C58U | 2.26e-05 ± 1.4e-05
168 | G29C G37A | 3.02e-05 ± 1.5e-05
169 | U30A U46G | 0.000154 ± 8e-05
170 | U30G C68G | 2.76e-05 ± 2e-05
171 | U31C U57A | 2.46e-05 ± 1.6e-05
172 | U31G A33U C70U | 3.05e-05 ± 2.4e-05
173 | G32U U45G | 1.05e-05 ± 9.2e-06
174 | A33G A64G C70A | 3.03e-05 ± 2e-05

Variants of: B1
Assay: self-cleavage kobs at 40 uM GlcN6P; higher = faster cleavage; RNA array
Settings: with glucosamine-6-phosphate
Method in brief: as §1

Row | Variant | self-cleavage kobs at 40 uM GlcN6P [s⁻¹]
175 | G29C U47G | 1.48e-05 ± 1.5e-05
176 | G29U C70G | 2.09e-05 ± 1.4e-05
177 | G29U G40C | 3.88e-05 ± 2.6e-05
178 | U30C G32A | 1.66e-05 ± 9.8e-06
179 | U30G C67A C70U | 3.58e-05 ± 2.6e-05
180 | U31A U69A | 1.81e-05 ± 1.5e-05
181 | U31C G41U | 1.82e-05 ± 1.8e-05
182 | G32A U47G | 2.89e-05 ± 1.9e-05
183 | G32U C58A | 1.36e-05 ± 1.1e-05

Variants of: B1
Assay: self-cleavage kobs at 2500 uM GlcN6P; higher = faster cleavage; RNA array
Settings: with glucosamine-6-phosphate
Method in brief: as §1

Row | Variant | self-cleavage kobs at 2500 uM GlcN6P [s⁻¹]
184 | G29C U57A | 2.39e-05 ± 2e-05
185 | U30A U46C | 0.000158 ± 0.0001
186 | U31A A42G U47A | 0.129 ± 0.08
187 | U31A C58A | 7.67e-05 ± 5e-05
188 | U31G A33U C70U | 4.04e-05 ± 2.1e-05
189 | G32A A42G A64G | 0.000585 ± 0.0004
190 | A33C U65A | 3.88e-05 ± 2e-05
191 | A33G A64G C70A | 4.46e-05 ± 2.7e-05
192 | A33U A53G C70U | 1.9e-05 ± 1.3e-05
